Measured values: patent US5574010A, “Treatment of pancreatic tumors with peptide YY and analogs thereof” (The Regents of The University of California, priority 1994, dated 1996)
Not every detail of the peptide structures is certain; ends, links or a residue may be inferred.

Legend:
[1] = tested on: human Mia PaCa-2 cells; assay: In vivo growth inhibition of orthotopically transplanted pancreatic ductal adenocarcinoma; details: male athymic mice, orthotopic Mia PaCa-2; 200 pmol/kg/hr via mini-osmotic pumps for four weeks; vs saline control
Method: The human pancreatic ductal adenocarcinoma Mia Paca-2 was examined for in vivo growth inhibition by peptide YY and Analog #1. Seventy thousand to 100,000 human Mia PaCa-2 cells were orthotopically transplanted into 48 male athymic mice. After one week, the animals were treated with either PYY or Analog #1 at 200 pmol/kg/hr via mini-osmotic pumps for four weeks. The paired cultures received saline. At sacrifice, both tumor size and mass were measured. Control mice had significant human cancer growth within the pancreas as evidenced by histologic sections. At 9 weeks, ninety percent (90%) of control mice had substantial metastatic disease.

[2] = tested on: MiaPaCa-2; assay: MTT viability assay, in vitro anti-proliferative activity; assay type: cell-based, human; details: Mia PaCa-2, 36 hours, vs saline control
Method: (§1) PANC-1 and MiaPaCa-2 are two human pancreatic adenocarcinomas cancer cell lines which are available commercially from suppliers such as American Type Culture Collection, ATCC (Rockville, Md.). For this example, the two tumor cells were grown in RPMI-1640 culture media supplemented with 10% fetal bovine serum, 29.2 mg/L of glutamine, 25 μg gentamicin, 5 ml penicillin, streptomycin, and fungizone solution (JRH Biosciences, Lenexa, Kans.) at 37° Celsius in a NAPCO water jacketed 5 % CO2 incubator. All cell lines were detached with 0.25 % trypsin (Clonetics, San Diego, Calif.) once to twice a week when a confluent monolayer of tumor cells was achieved. Cells were pelleted for 7 minutes at 500 g in a refrigerated centrifuge at 4 ° Celsius, and resuspended in trypsin free fortified RPMI 1640 culture media. Viable cells were counted on a hemocytometer slide with trypan blue.
(§2) Ten thousand, 20,000, 40,000 and 80,000 cells of each type were added to 96 well microculture plates (Costar, Cambridge, Mass.) in a total volume of 200 μl of culture media per well. Cells were allowed to adhere for 24 hours prior to addition of the PYY or Analog #1 peptides. Fresh culture media was exchanged prior to addition of peptides. In vitro incubation of pancreatic tumor cells with either PYY or Analog #1 was continued for 6 hours and 36 hours in length. PYY was added to cells at doses of 250 pmol, 25 pmol, and 2.5 pmol per well (N =14). Analog #1 was added to cells cultures at doses of 400 pmol, 40 pmol, and 4 pmol per well. Control wells received 2 μl of 0.9% saline to mimic the volume and physical disturbance upon adhered tumor cells. Each 96 well plate contained 18 control wells to allow for comparison within each plate during experimentation. Ninety-six (96) well plates were repeated 6 times with varying concentrations of PYY and Analog #1 in both the PANC-1 and MiaPaCa-2 cells.
(§3) At the end of the incubation period, 3-(4,5-dimethylthiazolyl-2-yl)-2,5-diphenyltetrazolium Bromide, MTr tetrazolium bromide (Sigma, St. Louis, Mo.) was added to fresh culture media at 0.5 mg/ml. Culture media was exchanged and tumor cells were incubated for 4 hours with MTT tetrazolium bromide at 37° Celsius. At the end of incubation, culture media was aspirated. Formazon crystal precipitates were dissolved in 200 μl of dimethyl sulfoxide (Sigma, St. Louis, Mo.). Quantitation of solubilized formazon was performed by obtaining absorption readings at […] wavelength on an ELISA reader (Molecular Devices, Menlo Park, Calif.). The MTT assay measures mitochondrial NADH dependent dehydrogenase activity, and it has been among the most sensitive and reliable method to quantitative in vitro chemotherapy responses of tumor cells. (Alley, M. C., Scudiero, D. A., Monk, A., Hursey, M. L., Dzerwinski, M. J., Fine, D. L., Abbott, B. J., Mayo, J. G., Shoemaker, R. H. and Boyd, M. R., Feasibility of drug screening with panels of human tumor cell lines using a microculture tetrazolium assay Cancer Res., 48:589-601, 1988; Carmichael, J., DeGraff, W. G., Gazdar, A. F., Minna, J. D. and Mitchell, J. B., Evaluation of a tetrazolium-based semiautomated colorimetric assay: Assessment of chemosensitivity testing. Cancer Res., 47:936-942, 1987; McHale, A. P., McHale, L., Use of a tetrazolium based colorimetric assay in assessing photoradiation therapy in vitro. Cancer Lett., 41:315-321, 1988; and Saxton, R. E., Huang, M. Z., Plante D., Fetterman, H. F., Lufkin, R. B., Soudant, J., Castro, D. J., Laser and daunomycin chemophototherapy of human carcinoma cells. J. Clin. Laser Med. and Surg., 10(5):331-336, 1992.)
(§4) Analysis of absorption readings at 550 nm were analyzed by grouping wells of the same test conditions and verifying differences occurring between control and the various peptide concentration treatments by one-way ANOVA. Once statistical significance was achieved, P <0.05, each test group was compared to its paired control group by Student's T-test within each 96 well plate. […]

[3] = tested on: PANC-1; assay: as above; assay type: cell-based, human; details: 36 hours, vs saline control
Method: as §1, §2, §3, §4

Substance: Ac-ASLRHWLNLVTRQRY-NH2 [Analog #1, N-α-Ala-Ser-Leu-Arg-His-Trp-Leu-Asn-Leu-Val-Thr-Arg-Gln-Arg-Tyr-NH2]
- Tumor mass decreased [1]: 60.5%
- Percent Reduction in Tumor Growth(%) Compared to Control ([2]; 4 pmol per well): 28.3%
- Percent Reduction in Tumor Growth(%) Compared to Control ([2]; 40 pmol per well): 33.6%
- Percent Reduction in Tumor Growth(%) Compared to Control ([2]; 400 pmol per well): 37.1%
- Percent Reduction in Tumor Growth(%) Compared to Control ([3]; 4 pmol per well): 10.5%
- Percent Reduction in Tumor Growth(%) Compared to Control ([3]; 40 pmol per well): 21.3%
- Percent Reduction in Tumor Growth(%) Compared to Control ([3]; 400 pmol per well): 18.2%
